Reference: PubChem BioAssay AID652243 (Drosophila RNAi Screening Center, 2013)

Purpose: 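Fly genes required for human androgen receptor driven transcription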 (primary screen)
Cell system: Drosophila S2R+ cells
Reagent: long dsRNA against Drosophila genes
Timing: 72 h (48 h, then 24 h hormone)
Treatment: synthetic androgen R1881 at 10 nM for 24 h
Measured: 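Per-well raw luminescence of the androgen-driven firefly reporter and of the Renilla control, two replicates each, without normalisation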
Reading the numbers: firefly reporter light: higher = more light from androgen-responsive reporter; Renilla control light: higher = more constitutive control signal (cell number, transfection)
Call rule: 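Hit when the log firefly-to-Renilla ratio dropped or increased by a fixed fold versus the mean of GFP or LacZ controls across duplicate plates; lowering cut given as 1.5 and as 3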
Meaning of the calls: active = hit: reporter lowered or raised; inactive = no hit
In all, the deposit lists about 24,000 reagents; this is an unselected part of those with a known target gene and a result. Over the whole deposit, 246 (1%) got an active call. 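Plates not normalised; calls are printed but the firefly/Renilla ratio behind them is not deposited; fold cut for lowering reported inconsistently.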 The raw values are shown without normalisation. Names joined by + are all predicted targets of the reagent. Not stated in the record: the amount of reagent.

The opening 3 records, to show the layout:
gene	amplicon	firefly reporter light, replicate 1	firefly reporter light, replicate 2	Renilla control light, replicate 1	Renilla control light, replicate 2	call
su(Hw)	DRSC17074	31022	8186	2.76e5	2.81e5	inactive
Sec61beta	DRSC07548	3.55e5	3.76e5	1.98e6	1.89e6	inactive
Sec61beta	DRSC21512	6.49e5	7.52e5	1.54e6	1.84e6	inactive

Results, from the first entry:
gene	amplicon	firefly reporter light, replicate 1	firefly reporter light, replicate 2	Renilla control light, replicate 1	Renilla control light, replicate 2	call
su(Hw)	DRSC17074	31022	8186	2.76e5	2.81e5	inactive
Sec61beta	DRSC07548	3.55e5	3.76e5	1.98e6	1.89e6	inactive
Sec61beta	DRSC21512	6.49e5	7.52e5	1.54e6	1.84e6	inactive
Sec61beta	DRSC28915	3.26e5	4.89e5	1.09e6	1.36e6	inactive
Nt5c	DRSC06711	8.87e5	9.87e5	2.04e6	1.87e6	inactive
Nt5c	DRSC27240	2.43e5	2.86e5	5.02e5	5.00e5	inactive
CG9992	DRSC20226	1.44e5	1.57e5	1.06e6	9.15e5	inactive
CG9992	DRSC21643	7.41e5	5.22e5	2.51e6	2.00e6	inactive
CG8854	DRSC07288	8.40e5	5.83e5	1.55e6	1.40e6	inactive
CG8854	DRSC24639	8.17e5	7.64e5	8.65e5	9.65e5	inactive
Prx2	DRSC20256	4.63e5	5.11e5	3.38e6	3.30e6	inactive
Prx2	DRSC29996	3.50e5	1.62e5	1.10e6	9.75e5	inactive
Clbn	DRSC14404	1.88e5	2.71e5	2.52e6	1.97e6	inactive
CG42662 + CG30080	DRSC05571	1.51e5	2.70e5	3.24e5	3.82e5	inactive
CG15093	DRSC06522	3.80e5	2.74e5	5.57e5	4.20e5	inactive
CG15093	DRSC24576	8.00e5	8.11e5	7.88e5	7.83e5	inactive
CG5835	DRSC15886	2.31e5	2.79e5	3.09e6	3.24e6	inactive
CG5835	DRSC27415	2.37e5	4.35e5	6.60e5	7.63e5	inactive
Scr	DRSC23141	4.84e5	4.89e5	54542	80649	inactive
Scr	DRSC29201	5.10e5	4.66e5	1.24e6	1.02e6	inactive
CG42365	DRSC04266	1.87e5	1.50e5	1.22e6	9.07e5	inactive
CG8509	DRSC20109	1.00e5	1.06e5	6.07e5	6.82e5	inactive
CG8509	DRSC36817					inactive
ND-49	DRSC17151	2.26e5	2.61e5	3.42e6	2.89e6	inactive
SkpA	DRSC18833	40224	36912	2.03e5	2.54e5	inactive
SkpA	DRSC25163	3.85e5	3.09e5	7.77e5	4.81e5	inactive
CG31365	DRSC15610	89448	1.14e5	1.16e6	1.27e6	inactive
CG15394	DRSC00408	55721	46806	5.39e5	4.52e5	inactive
TwdlL	DRSC16042	1.21e5	94825	9.24e5	7.74e5	inactive
CG15905	DRSC06591	1.09e5	1.34e5	1.18e6	1.46e6	inactive
CG33757	DRSC38884	1.06e6	8.05e5	2.38e6	1.33e6	inactive
Alg-2	DRSC07799	27550	39264	8.87e5	1.01e6	inactive
lncRNA:iab4	DRSC22331	1.07e6	8.84e5	1.42e6	1.17e6	inactive
lncRNA:iab4	DRSC26703	3.60e5	2.92e5	7.22e5	6.68e5	inactive
CG14891	DRSC15013	1.05e5	1.14e5	6.74e5	7.11e5	inactive
Cht6	DRSC18001	5.14e5	5.51e5	3.07e6	3.25e6	inactive
Cht6	DRSC18253	3.69e5	3.68e5	3.43e6	2.92e6	inactive
Cht6	DRSC23211	8.77e5	7.41e5	1.40e6	1.32e6	inactive
Cht6	DRSC28095	5.58e5	6.17e5	2.40e6	1.99e6	inactive
trio	DRSC07928	83468	1.35e5	1.48e5	2.81e5	inactive
trio	DRSC08740	30049	53157	7.66e5	9.89e5	active
trio	DRSC26700	2.69e5	2.70e5	8.18e5	7.75e5	inactive
